± gives the standard deviation. The list shows a part of the results. Many of these values have a large error.

The subject of this experiment is EfPiwi piRISC loaded with L1MC piRNA (26 nt). The experiment is described as follows: pre-steady-state target cleavage rate (min^-1); guide: L1MC piRNA 5'p-UAACUAAAUACUAUGCAAGCUGUAGG; MIWI and MILI are mouse PIWI proteins and EfPiwi is from a freshwater sponge; tags in brackets are library labels; higher = faster piRNA-guided slicing of the target. Particulars: auxiliary factor: 500 nM Ephydatia muelleri Gtsf1. The essentials: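 A burst-and-steady-state fit was used to obtain the pre-steady-state cleavage rate. The input data were sequencing reads of uncleaved targets, normalised to depth and to weakly complementary targets, from a […] transcribed, DNA-blocked target RNA library mixed with 1 nM active affinity-purified piRISC holding one synthetic guide, with or without 500 nM GTSF1 partner protein, in HEPES–potassium acetate buffer at 33 °C for 0–8 or 0–960 min. Three trials were pooled and k3 was capped at 0.0001 min^-1.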
For the sequence UCCUGGUACUGCUUGCAUAGUUUUUAGUUA, the “pre-steady-state target cleavage rate” value was found to be 0.00107 ± 0.0081.
The result for UCCUGGAAGAGCUUGCAUAGUAUUUAGUAA reads 0.00426 ± 0.0021.
Turning to UCCUGGAUCAGCUUGAAUAGUAUUUAGUUA, the “pre-steady-state target cleavage rate” value is 0.0605 ± 0.015.
On to UCCUGCUCAGCUUGCAUAGUAUUUAGUUA, for which the “pre-steady-state target cleavage rate” value amounted to 0.065 ± 0.015.
With UCCUGGAUGUCGAACGUAUCAAUAUAGUUA, the “pre-steady-state target cleavage rate” value is under 0.0001.
Turning to UCCUGGAUGUGCAUGCAUAGUAUUUAGUAA, the “pre-steady-state target cleavage rate” value was determined as 0.00151 ± 0.0042.
The value for UCCUGGUACAGCUUGGAUAGUUUUUAGUUA was 0.00333 ± 0.0047.
For the sequence UCCUGGAUGUGGUUGCAUAGUAUUUAGUAA, the “pre-steady-state target cleavage rate” value amounted to 0.11 ± 0.056.
The result for UCCUGGAUCAUCUUGCAUAGUAUUUAGUUA reads 0.101 ± 0.023; that for UCCUCCUUCUGCUUGCAUAGUAUUUAGUUA, 0.11 ± 0.028.
Regarding UCCUGGAACAGCUUGCAUAGUAUUAAGUUA, the “pre-steady-state target cleavage rate” value came to 0.00549 ± 0.0022.
For UCCUGGAUGUCGAACGUAUCUAGUUUAGUUA, the “pre-steady-state target cleavage rate” value was under 0.0001.
The result for UCCUCCUAGAGCUUGCUUAGUAUUUAGUUA reads 0.0217 ± 0.0064.
The result for “UCCUGGAUGUCGAACGUAAGUAUUUAGUUA [g2:g12:cont:t1A]” reads 0.000124 ± 0.014.
As for UCCUGGUAAGCUUGCAUAGUAUUUAGUUA, the “pre-steady-state target cleavage rate” value was determined as 0.0168 ± 0.0044.
As to UCCUCCUACAGUCUUGCAUAGUAUUUAGUUA, the “pre-steady-state target cleavage rate” value came to 0.0171 ± 0.006.
UCCUGGAUCAGCUUGGUUAGUAUUUAGUAA: the “pre-steady-state target cleavage rate” value came to 0.00158 ± 0.004.
The value for UCCUGGUACAGCUUGCAUAGUAAUUAGAAA was 0.0016 ± 0.0049.
With UCCUGCUACAGCUUGGUUAGUAUUUAGUUA, the “pre-steady-state target cleavage rate” value came to 0.0105 ± 0.0033.
The value for UCCUGCUUCUGCUUGCAUAGUAUUUAGUUA was 0.0112 ± 0.0038; that for UCCUCCUACAGCUUGCAUAGUAUUUAUUUA was 0.143 ± 0.053; that for UCCUGCUACAGCUUGCAUAGUAUAAAGUUA was 0.00347 ± 0.0022.
With UCCUGGAACAGCUUGCACAGUAUUUAGUUA, the “pre-steady-state target cleavage rate” value worked out at 0.0589 ± 0.015.
Turning to UCCUGGAUGUCGAACGUAUGUUUUAAGUUA, the “pre-steady-state target cleavage rate” value turned out to be 0.000142 ± 0.035.
The value for UCCUGGAUGUCGAACGUAAGUAUUUAGUUUA was 0.000134 ± 0.02; that for UCCUGGUACAGCUUGCUAAGUAUUUAGUUA was 0.000808 ± 0.0055.
With UCCUGGAUGAGUUUGCAUAGUAUUUAGUUA, the “pre-steady-state target cleavage rate” value came out at 0.0219 ± 0.006.
In the case of UCCUGCUUCAGCUUGCAUAGUAUUUAGAUA, the “pre-steady-state target cleavage rate” value amounted to 0.00521 ± 0.0024.
Take UCCUGGAUGAGCUUGCUUAGUAUUUUGUUA: the “pre-steady-state target cleavage rate” value is 0.00206 ± 0.0039.
On to UCCUGGAUGUGCUUGCAUAGUUUUUAGUAA, for which the “pre-steady-state target cleavage rate” value is 0.000532 ± 0.0093.
For the sequence UCCUGGAUGUGCUAUGCAUAGUAUUUAGUUA, the “pre-steady-state target cleavage rate” value was determined as 0.0103 ± 0.0036.
The value for UCCUGGAUGUCGAACGUAUCUAUUAUCUUA was under 0.0001; that for UCCUGGAUGUGCUUGCAUAGUAUUUUCUUA was 0.00171 ± 0.0036.
The value for UCCUGGUACUGCUUGCAUAGUAUUUAGUAA was 0.00428 ± 0.0018.
Regarding UCCUGGAACAGCUUGCAUAGUAUUCAGUUA, the “pre-steady-state target cleavage rate” value stood at 0.00333 ± 0.0018.
The value for UCCUGGAUGUCGAAGCAUAGUAAUUAGUAA was 0.000725 ± 0.008; that for UCCUGCUAGAGCUUGCAUAGUAUUUAGUUA was 0.00838 ± 0.0023.
The value for UCCUGGUCAGCUUGCAUAGUAUUUAGUUA was 0.14 ± 0.027.

The values above are taken from the supplement of paper PMC10338343.
